# The full ranking holds about 33,000 sequences; the median of “E-score (-0.5 to 0.5)” is about -0.015, and the highest 2% start at about 0.3. Some of the results follow.
# Target: T1, Abf1 (UniProt P14164)
# T1 sequence: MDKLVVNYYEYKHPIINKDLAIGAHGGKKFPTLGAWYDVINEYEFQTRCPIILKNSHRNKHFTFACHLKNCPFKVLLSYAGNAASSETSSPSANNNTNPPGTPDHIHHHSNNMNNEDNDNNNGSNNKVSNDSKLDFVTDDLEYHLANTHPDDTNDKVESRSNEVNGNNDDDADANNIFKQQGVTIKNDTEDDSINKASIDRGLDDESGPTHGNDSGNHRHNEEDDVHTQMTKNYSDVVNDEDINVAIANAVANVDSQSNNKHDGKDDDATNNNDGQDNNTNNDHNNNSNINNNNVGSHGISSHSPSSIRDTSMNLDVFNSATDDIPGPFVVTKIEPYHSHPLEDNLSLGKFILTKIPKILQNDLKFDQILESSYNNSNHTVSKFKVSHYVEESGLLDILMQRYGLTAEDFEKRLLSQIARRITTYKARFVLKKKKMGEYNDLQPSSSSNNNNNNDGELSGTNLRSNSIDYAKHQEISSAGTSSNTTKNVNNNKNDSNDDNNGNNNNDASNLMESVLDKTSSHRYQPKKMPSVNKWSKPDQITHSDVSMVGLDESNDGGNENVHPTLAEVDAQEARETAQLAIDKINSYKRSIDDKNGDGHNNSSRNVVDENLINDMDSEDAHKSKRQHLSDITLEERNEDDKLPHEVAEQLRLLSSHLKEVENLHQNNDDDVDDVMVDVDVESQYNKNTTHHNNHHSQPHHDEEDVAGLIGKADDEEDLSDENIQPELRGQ
# Experiment: PBM E-score (8-mer binding enrichment) (E-score (-0.5 to 0.5)); higher = stronger / more preferred TF binding
# Settings: protein concentration: 200 nM; construct: GST-full length
# Method: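 Universal 'all 10-mer' protein binding microarrays (Agilent AMADID 015681) probed with GST-tagged S. cerevisiae TFs (full-length or DBD) made by in vitro transcription/translation (PURExpress), about 100-200 nM. Bound TF was detected with fluorescent anti-GST. Each ungapped 8-mer (which stands for itself and its reverse complement) is scored by the PBM enrichment score (E-score), a modified Wilcoxon-Mann-Whitney statistic from -0.5 to +0.5, computed with the Universal PBM Analysis Suite. Scale: above 0.35 generally sequence-specific binding.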
row,Sequence,PBM E-score
1,CGTTACAA,0.195
2,CACTTAGA,0.186
3,GGAACGCA,-0.0656
4,GGACTCAA,-0.158
5,ATAACGAG,0.24
6,ACGAAAGA,0.0978
7,ATTTATCA,0.314
8,AGGCCCGA,-0.383
9,CATGTTTC,0.0467
10,CTCGTAAA,0.226
11,TGATTGAA,0.2
12,CGCCCTAG,-0.0127
13,CACGTGGA,0.182
14,AACTGTCC,-0.0547
15,ATGACGCG,0.0972
16,CTCACTTA,0.14
17,AGACCGTA,0.0319
18,TCGCTTAA,0.135
19,TTGAACAA,0.0308
20,AAAGTGTA,0.0985
21,ACCTAACG,0.0885
22,ATCTAAGG,0.0522

row,Sequence,PBM E-score
1,ATCCGTGA,0.251
2,GACCTCGA,-0.00289
3,ACTAGATC,-0.0369
4,ATGCGTGG,-0.109
5,CCCGGCAG,-0.135
6,CAAGGATC,-0.0299
7,ATTACAGC,-0.0293
8,ACGCATTG,0.0256
9,AACGCGAT,0.0681
10,ATTAGAAT,0.0036
11,CGCCAGAG,-0.201
12,CTGCAAAA,0.0938
13,GATCGTAA,0.254
14,CAGAACCA,-0.174
15,CCGAGATC,0.0295
16,AAAAGATG,0.11
17,AAAACCTT,-0.204
18,GACAAGAA,0.0728
19,CCCAACTC,-0.19
20,CAAGGTTC,-0.0801
21,CATGGGCC,-0.102
22,GACGTCGC,0.122

row,Sequence,PBM E-score
1,GGAAGTAC,-0.0706
2,TACCAGTA,0.0685
3,CTATCCTC,-0.0153
4,ATATCGGC,0.149
5,ACCGACGA,0.104
6,GTCCCGAC,-0.155
7,GTGCTGAA,-0.0603
8,GAAGACTC,0.0777
9,TATTAAAA,0.225
10,GGGTGGAA,-0.194
11,GGTCGTAC,0.212
12,CATTAGGA,-0.0278
13,AGGTAGAT,-0.0286
14,CCCTTCCG,-0.286
15,ATATATCC,0.171
16,ACCGCGGT,0.0152
17,ACAGCTCT,-0.248
18,AAAAAGTA,0.242
19,CCCTTTAC,-0.191
20,ACTAGAGT,-0.116
21,AATCTGCG,0.0356
22,AACAGTAA,-0.0209

row,Sequence,PBM E-score
1,CTCTAGAG,-0.12
2,ACTGTTAA,0.0822
3,CATCGTCA,0.297
4,GTGGGCCA,0.0455
5,GTTCAGCA,0.114
6,GTCTGTCA,0.129
7,CCCTCTGA,-0.196
8,AGGAAAAG,-0.119
9,AATGGATA,0.0384
10,ACGCCCGC,-0.0428
11,AACTTTCG,-0.144
12,CAACGATG,0.014
13,GATGACAC,0.337
14,ATCGAGGC,-0.126
15,CGTCAGGA,0.184
16,GACTGAAC,-0.107
17,GATGTACA,0.0804
18,GGTCCAAC,-0.17
19,AATCGCGG,-0.0917
20,ACCTGGTG,-0.228
21,AAAGGAGT,-0.219
22,ACAGAATC,-0.0766

row,Sequence,PBM E-score
1,AGATGTAT,-0.00043
2,CACCTGCC,-0.0811
3,ACTGCGAC,-0.0346
4,TATATTAA,0.167
5,ACACGTGA,0.237
6,ACCGCTAG,-0.2
7,AAACGAGG,0.0788
8,TAACTCGA,0.143
9,CAGTAGCG,-0.07
10,AACTTGTC,0.0305
11,CTAGGTAA,-0.147
12,GTGGTCGA,0.0486
13,ACAAATCC,-0.0383
14,CCGTAAGC,0.0521
15,GGGTCATA,-0.0763
16,AACACGGG,0.0382
17,CCACGTGG,-0.143
18,CACCTTGA,-0.00716
19,ACCCACGC,-0.189
20,TTCGAGAA,0.059
21,CCTCGCCA,-0.305

# Reformatted bar-delimited: entries from further up.
row | Sequence | PBM E-score
1 | AGATGTAT | -0.00043
6 | ACCGCTAG | -0.2
9 | CAGTAGCG | -0.07
11 | CTAGGTAA | -0.147
20 | TTCGAGAA | 0.059

# Reference: the supplement of paper PMC3334620
